Reference: PubChem BioAssay AID330 (DTP/NCI, 2004)
The list shows only some results of the screen, not a fair sample: it is rich in T/C values a quarter to a half above the control, in often repeated tests (any T/C) and in doses without a T/C. Further doses and runs are listed elsewhere. T/C is the treated group as % of the vehicle group. Some entries give survivors of the animals treated and no T/C: the source holds a T/C of zero for them, seemingly a mark for toxic or unscored doses. Some doses without a T/C left all or most animals alive at the check, yet need not have been tolerated: the source hardly ever lists a survival T/C far under the control, and the zero likely stands for such cases as well. Survivors were counted at the toxicity check, usually on the fifth day, unless a day is given; later deaths do not show. Schedules are NCI's codes, taken here to give the interval after Q, in days (D) or hours (H), and the number of doses after X. Some entries were tested several times; the values are given in rising order. Where survival is the endpoint, this PubChem deposit counts one and a half times the control or more as active, and values a quarter to a half above the control carry no call in these data; other NCI protocols may use other cut-offs. Some T/C values carry the count of animals alive at the toxicity check (mostly the fifth day); without a count, all were alive then.

Tested on: P388 leukemia ip, CD2F1 mice, survival T/C
Test: NCI In Vivo Anticancer Drug Screen. Data for tumor model P388 Leukemia (intraperitoneal) in CD2F1 (CDF1) mice
Settings: T/C endpoint: median survival time, higher T/C = longer survival
[1] = dose: 100.0 mg/kg/injection, schedule: Q01DX005 (ip), vehicle: saline with Tween-80
[2] = dose: 200.0 mg/kg/injection, schedule: Q01DX005 (ip), vehicle: saline with Tween-80
[3] = dose: 100.0 mg/kg/injection, schedule: Q01DX009 (ip), vehicle: saline with Tween-80
[4] = dose: 100.0 mg/kg/injection, schedule: Q01DX009 (ip), vehicle: water
[5] = dose: 200.0 mg/kg/injection, schedule: Q01DX009 (ip), vehicle: saline with Tween-80
[6] = dose: 200.0 mg/kg/injection, schedule: Q01DX009 (ip), vehicle: water
[7] = dose: 200.0 mg/kg/injection, schedule: Q01DX009 (ip), vehicle: saline
[8] = dose: 200.0 mg/kg/injection, schedule: Q01DX009 (ip), vehicle: Klucel (hydroxypropylcellulose) (HPC)
[9] = dose: 12.5 mg/kg/injection, schedule: Q01DX009 (ip), vehicle: water
[10] = dose: 400.0 mg/kg/injection, schedule: Q04DX002 (ip), vehicle: Klucel (hydroxypropylcellulose) (HPC)
[11] = dose: 400.0 mg/kg/injection, schedule: Q04DX002 (ip), vehicle: saline with Tween-80
[12] = dose: 50.0 mg/kg/injection, schedule: Q01DX009 (ip), vehicle: saline with Tween-80
[13] = dose: 50.0 mg/kg/injection, schedule: Q01DX005 (ip), vehicle: saline + alcohol

In the case of `C=CCC(C(C)=O)C(C)=NCCN=C(C)C(CC=C)C(C)=O.[Cu]` (centres undefined), the survivor count (dose: 25.0 mg/kg/injection, schedule: Q01DX005 (ip), vehicle: saline with Tween-80) is reported as 3 of 5, the survivor count (dose: 50.0 mg/kg/injection, schedule: Q01DX005 (ip), vehicle: saline with Tween-80) is reported as 0 of 5 and the survivor count [1] is reported as 0 of 5. For the same compound, the survivor count [2] was 0 of 5.
`Nc1nn(-c2cccc(C(F)(F)F)c2)c2cccc[n+]12` was tested, and the survivor count [3] was 1 of 6, the survivor count [4] was 5 of 6 and the survivor count [5] was 0 of 6. For the same compound, the survivor count [6] was 0 of 6 and the survivor count (dose: 400.0 mg/kg/injection, schedule: Q01DX009 (ip), vehicle: water) was 0 of 6.
In the case of `COCCOC(C)C(=O)C(O)S(=O)(=O)O` (centres undefined), the T/C [7] is reported as 127 % of control.
For `O=NNc1nc2ccc([N+](=O)[O-])cc2s1`, the T/C (dose: 50.0 mg/kg/injection, schedule: Q01DX009 (ip), vehicle: water) was 129 % of control, the survivor count [4] was 0 of 6 and 2 of 6 and the survivor count [6] was 0 of 6.
`COc1ccc(Cc2nnc(C)c3c(C)[nH]nc23)cc1OC` was tested, and the survivor count [8] was 6 of 6.
`CC(=O)c1c(Br)c2c3ccccc3c3ccccc3n2c1C` was tested, and the survivor count (dose: 60.0 mg/kg/injection, schedule: Q01DX005 (ip), vehicle: saline with Tween-80) was 6 of 6 and the survivor count (dose: 120.0 mg/kg/injection, schedule: Q01DX005 (ip), vehicle: saline with Tween-80) was 6 of 6.
In the case of `CCCC(=O)Oc1ccc[nH]c1=O`, the T/C [9] is reported as 133 % of control.
`CC1CN=C(c2ccc(NC(=O)Nc3ccc(C(=O)Nc4ccc(C5=NCC(C)N5)cc4)cc3)cc2)N1` (centres undefined) was tested, and the T/C (dose: 6.25 mg/kg/injection, schedule: Q01DX009 (ip), vehicle: saline with Tween-80) was 140 % of control, the T/C (dose: 50.0 mg/kg/injection, schedule: Q04DX003 (ip), vehicle: saline with Tween-80) was 125 % of control and the survivor count [3] was 4 of 6. For the same compound, the survivor count (dose: 200.0 mg/kg/injection, schedule: Q04DX003 (ip), vehicle: saline) was 2 of 6 and the survivor count (dose: 400.0 mg/kg/injection, schedule: Q04DX003 (ip), vehicle: saline) was 1 of 6.
For `Cc1ccc2[nH]c3c(c2c1)-c1ncncc1CC3`, the survivor count [10] was 1 of 5.
`FC(F)(F)COP1OCCS1` (centres undefined) was tested, and the survivor count [11] was 2 of 5.
`O=C(OC[P+](c1ccccc1)(c1ccccc1)c1ccccc1)c1ccccc1` was tested, and the survivor count (dose: 100.0 mg/kg/injection, schedule: Q01DX009 (ip), vehicle: saline) was 2 of 6 and the survivor count [7] was 0 of 6.
`NC1=NC(=O)N2CC12` (centres undefined) was tested, and the T/C (dose: 50.0 mg/kg/injection, schedule: Q01DX009 (ip), vehicle: saline) was 126 % of control, the T/C [7] was 128 % of control and the survivor count (dose: 400.0 mg/kg/injection, schedule: Q01DX009 (ip), vehicle: saline) was 0 of 6.
With `OC1COC2C(O)COC12` (centres undefined) the survivor count [7] was 5 of 6.
`COc1cc(C(C)(C)C)cc(OC)c1C(O)(c1c(OC)cc(C(C)(C)C)cc1OC)c1c(OC)cc(C(C)(C)C)cc1OC` was tested, and the T/C [12] was 135 % of control [5 of 6 alive] and the survivor count [5] was 0 of 6.
For `C/C(=N\NC(N)=Nc1ccccc1)c1ccc(Cl)c(Cl)c1`, the survivor count (dose: 200.0 mg/kg/injection, schedule: Q04DX002 (ip), vehicle: saline with Tween-80) was 1 of 6 and the survivor count [11] was 0 of 6.
For `Nc1cc2c(c[n+](CCCCCCCC[n+]3cc4c5ccccc5c(N)cc4c4ccccc43)c3ccccc23)c2ccccc12`, the T/C (dose: 12.5 mg/kg/injection, schedule: Q04DX003 (ip), vehicle: other) was 144 % of control, the survivor count (dose: 25.0 mg/kg/injection, schedule: Q04DX003 (ip), vehicle: other) was 6 of 6 and the survivor count (dose: 50.0 mg/kg/injection, schedule: Q04DX003 (ip), vehicle: other) was 5 of 6. For the same compound, the survivor count (dose: 100.0 mg/kg/injection, schedule: Q04DX003 (ip), vehicle: other) was 5 of 6.
`C[n+]1c(-c2cccc(-c3ccccc3)c2)c2cc(N)ccc2c2ccccc21` was tested, and the T/C (dose: 0.78 mg/kg/injection, schedule: Q01DX009 (ip), vehicle: water) was 129 % of control, the T/C (dose: 1.56 mg/kg/injection, schedule: Q01DX009 (ip), vehicle: water) was 129 % of control and the T/C (dose: 3.13 mg/kg/injection, schedule: Q01DX009 (ip), vehicle: other) was 137 % of control. The T/C (dose: 3.13 mg/kg/injection, schedule: Q01DX009 (ip), vehicle: water) was 132 % of control, the T/C (dose: 6.25 mg/kg/injection, schedule: Q01DX009 (ip), vehicle: other) was 134 % of control and the T/C (dose: 6.25 mg/kg/injection, schedule: Q01DX009 (ip), vehicle: water) was 137 % of control. For the same compound, the survivor count (dose: 12.5 mg/kg/injection, schedule: Q01DX009 (ip), vehicle: other) was 6 of 6, the survivor count [9] was 5 of 6 and the survivor count (dose: 25.0 mg/kg/injection, schedule: Q01DX009 (ip), vehicle: other) was 5 of 6.
`CCN(CC)CCNc1cc(Nc2ccc([N+](=O)[O-])cc2)ccc1OC` was tested, and the survivor count [1] was 5 of 5.
`C/C(=N\N=C(/[Se])N1CCCCCC1)c1ccccn1` was tested, and the survivor count (dose: 100.0 mg/kg/injection, schedule: Q04DX003 (ip), vehicle: Klucel (hydroxypropylcellulose) (HPC)) was 2 of 6 and 6 of 6 and the survivor count (dose: 400.0 mg/kg/injection, schedule: Q04DX003 (ip), vehicle: Klucel (hydroxypropylcellulose) (HPC)) was 2 of 6.
For `Cc1c(S)cnc2ccccc12`, the survivor count [2] was 5 of 5.
`COC(=O)c1ccc(SCC(=O)c2ccc([N+](=O)[O-])o2)cc1` was tested, and the survivor count (dose: 200.0 mg/kg/injection, schedule: Q01DX009 (ip), vehicle: suspension in saline) was 5 of 6.
`O=C(SCc1oc2ccccc2c1O)c1ccccc1` was tested, and the survivor count [12] was 5 of 6 and the survivor count [5] was 0 of 6.
`Cc1ccc2c(c1)CN(C13CC4CC(CC(C4)C1)C3)CO2` was tested, and the T/C (dose: 100.0 mg/kg/injection, schedule: Q04DX003 (ip), vehicle: saline with Tween-80) was 125 % of control.
For `C=C1C(=O)O[C@H]2C1[C@H](OC(=O)/C(C)=C\C)CC(=C)[C@@H]1C(=O)[C@H]3O[C@@]3(C)[C@@]12O` (some centres undefined), the T/C [13] was 125 % of control, the survivor count [13] was 0 of 6 and the survivor count (dose: 100.0 mg/kg/injection, schedule: Q01DX005 (ip), vehicle: saline + alcohol) was 0 of 6 and 1 of 6.
`CCC(=O)C[N+]12CCN(CC1)CC2` was tested, and the survivor count (dose: 100.0 mg/kg/injection, schedule: Q04DX002 (ip), vehicle: Klucel (hydroxypropylcellulose) (HPC)) was 0 of 6, the survivor count (dose: 200.0 mg/kg/injection, schedule: Q04DX002 (ip), vehicle: Klucel (hydroxypropylcellulose) (HPC)) was 0 of 6 and the survivor count [10] was 0 of 6.
For `Cc1ccc(OP(=O)(Oc2ccc(C)cc2)Oc2ccc(C)cc2)cc1.Cc1ccc(OP(=O)(Oc2ccc(C)cc2)Oc2ccc(C)cc2)cc1.Cc1ccc(OP(=O)(Oc2ccc(C)cc2)Oc2ccc(C)cc2)cc1.Cc1ccc(OP(=O)(Oc2ccc(C)cc2)Oc2cccc(C)c2)cc1.[Cd+2].[O-][Cl+3]([O-])([O-])O`, the survivor count (dose: 100.0 mg/kg/injection, schedule: Q01DX009 (ip), vehicle: Klucel (hydroxypropylcellulose) (HPC)) was 0 of 6 and the survivor count [8] was 0 of 6.
With `COC(=O)NC1C(C)OC(OC2C/C=C(/C)C3C=CC4C(OC5CC(OC6CCC(OC7CC(O)C(OC8CCC(O)C(C)O8)C(C)O7)C(C)O6)C(OC(C)=O)C(C)O5)C(C)CC(C)C4C3(C)/C(O)=C3/C(=O)OC4(CC(C=O)=CC(O)C4/C=C\2C)C3=O)CC1(C)[N+](=O)[O-]` (centres undefined) the T/C (dose: 5.0 mg/kg/injection, schedule: Q01DX005 (ip), vehicle: water) was 125 % of control, the survivor count (dose: 14.93 mg/kg/injection, schedule: Q01DX005 (ip), vehicle: water) was 6 of 10 and the survivor count (dose: 20.0 mg/kg/injection, schedule: Q01DX005 (ip), vehicle: water) was 3 of 6. The survivor count (dose: 22.28 mg/kg/injection, schedule: Q01DX005 (ip), vehicle: water) was 3 of 10 and the survivor count (dose: 40.0 mg/kg/injection, schedule: Q01DX005 (ip), vehicle: water) was 0 of 6.
`CN(C)C1=NC(NC(C)(C)C)(N(C)C)OC(N(C)C)=N1` (centres undefined) was tested, and the survivor count (dose: 200.0 mg/kg/injection, schedule: Q01DX005 (ip), vehicle: saline) was 0 of 6.
